Source: paper PMC2788426

By UniProt entry, the sequences of proteins in these tests, tags left out. Where a name states a change or a piece, a line headed by the entry shows the natural chain unless it says otherwise.
UniProt P42224: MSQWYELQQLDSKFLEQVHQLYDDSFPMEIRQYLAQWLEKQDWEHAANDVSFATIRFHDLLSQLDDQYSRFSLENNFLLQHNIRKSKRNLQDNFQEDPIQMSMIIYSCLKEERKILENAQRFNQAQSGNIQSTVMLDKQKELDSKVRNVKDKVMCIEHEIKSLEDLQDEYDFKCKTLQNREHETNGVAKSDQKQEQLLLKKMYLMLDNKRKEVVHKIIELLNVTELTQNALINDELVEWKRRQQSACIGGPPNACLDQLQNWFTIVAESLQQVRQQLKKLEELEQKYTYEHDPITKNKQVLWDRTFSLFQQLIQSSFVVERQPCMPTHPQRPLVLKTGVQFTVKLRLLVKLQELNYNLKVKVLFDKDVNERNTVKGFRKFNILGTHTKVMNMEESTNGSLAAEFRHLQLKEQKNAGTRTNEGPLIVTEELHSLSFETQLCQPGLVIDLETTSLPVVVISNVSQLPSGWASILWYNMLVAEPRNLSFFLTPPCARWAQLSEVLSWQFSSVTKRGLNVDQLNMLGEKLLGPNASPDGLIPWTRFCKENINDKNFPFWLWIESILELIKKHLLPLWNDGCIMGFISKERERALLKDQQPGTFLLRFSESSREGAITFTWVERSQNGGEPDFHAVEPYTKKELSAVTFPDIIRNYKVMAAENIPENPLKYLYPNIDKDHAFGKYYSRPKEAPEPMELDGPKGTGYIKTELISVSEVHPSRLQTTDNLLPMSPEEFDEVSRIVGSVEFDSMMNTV

What was measured:
Stat1 + nucleolin = assay: competition with a labelled probe; conditions: 5-fold excess unlabeled H2K did not affect GAS complex; EMSA with 2-4 ug whole cell extract (Results text says nuclear extract), 30 min at 25 C; salt and pH not given (ref. 69); protein in an extract; label: unlabeled competitor
Stat1 homodimer = Stat1 homodimer (UniProt P42224); assay: EMSA; conditions: IFN-gamma 2 h THP-1 extract, positive control; EMSA with 2-4 ug whole cell extract (Results text says nuclear extract), 30 min at 25 C; salt and pH not given (ref. 69); protein in an extract; label: 32P

Sequence: GATCCAGGGCTGGGGATTCCCCATCTCCACAGG / GATCCCTGTGGAGATGGGGAATCCCCAGCCCTG [H2K]
- binding result (Stat1 + nucleolin): no binding

Sequence: CATGTTATGCATATTCCTGTAAGTG / CATGCACTTACAGGAATATGCATAA [GAS]
- binding result (Stat1 homodimer): binds

For at least one entry, the source does not settle the construct or the ends of the probe. Where cells or extracts were used, other partners may take part. For some assays here: Negatives hold for the conditions tested. For some assays here: At least one verdict rests on a figure or table, not on a statement of the authors.
